Binding signal data for 23 sequences are collected here from article PMC7819943, “Rice protein-binding microarrays: a tool to detect cis-acting elements near promoter regions in rice”.

The list shows a part of the results.

The experiment deals with T1, OsSMF1 (Oryza sativa, UniProt Q6ZLB0 1-436).
T1 sequence: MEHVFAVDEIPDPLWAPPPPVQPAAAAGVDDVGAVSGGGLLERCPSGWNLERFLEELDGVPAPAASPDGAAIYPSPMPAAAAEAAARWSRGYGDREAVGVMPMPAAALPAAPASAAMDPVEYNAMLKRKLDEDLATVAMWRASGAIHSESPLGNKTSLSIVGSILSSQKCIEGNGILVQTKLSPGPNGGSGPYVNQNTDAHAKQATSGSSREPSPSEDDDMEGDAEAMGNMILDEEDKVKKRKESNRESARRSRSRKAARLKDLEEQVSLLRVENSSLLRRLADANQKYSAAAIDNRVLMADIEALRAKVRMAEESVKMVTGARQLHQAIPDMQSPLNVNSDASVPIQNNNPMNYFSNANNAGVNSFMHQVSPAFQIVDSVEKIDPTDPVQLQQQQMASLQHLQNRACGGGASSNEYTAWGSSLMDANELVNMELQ
Put plainly: protein-binding microarray (RPBM); PBS, 2% BSA, 51.3 ng/ul salmon testes DNA, 50 uM zinc acetate, 200 nM TF, 25 C, 1 h; high values mean tight binding. The note with it: protein: recombinant; tags: N-terminal polyhistidine and DsRed monomer fusion (pET32a); chain copies: 2; label: CyDye5-dUTP incorporated in the synthesized complementary strand; 3' TTTTT single-stranded linker to array surface; dsDNA, one strand shown. The procedure, abridged:
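An Axon 4000B scanner gave the binding signal as per-feature fluorescence intensity in arbitrary units. This followed washing of a custom Agilent array that had been incubated for 1 h at 25 °C with 200 nM protein in PBS, 2% BSA, salmon testes DNA and 50 µM zinc acetate. The proteins were transcription factors fused at the N-terminus to polyhistidine and DsRed, expressed in E. coli BL21-CodonPlus and purified on Ni–NTA.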
“AACCATGTCACTGCTCTAAACTCGCCTTTTGTTGACTTGGCGGAGTCACCTAGTGCAG”: the binding signal was 3690 fluorescence intensity (a.u.).

Consider “CTGAACATGTTGTTCAGTTGGCCTCGTTTTCTCACCTTTGCGGAGTCACCTAGTGCAG”, for which the binding signal was 3190 fluorescence intensity (a.u.). For “CCAGCACAGCCGACGGCGATCTCTTGTGTTTCCAGCGTGACGGAGTCACCTAGTGCAG”, the binding signal is 3590 fluorescence intensity (a.u.). For the sequence “AGGATGGATACATGGAAGGAAGGATGGTGGTACATGACATCGGAGTCACCTAGTGCAG”, the binding signal is 3800 fluorescence intensity (a.u.). The same measure for “CCAGGCGTCGCCGAGCTCTGCTCCGTCGTGTCAGCTTCTTCGGAGTCACCTAGTGCAG”: 4590 fluorescence intensity (a.u.); for “GCGCGGGAACGCCATGCAGGGGAGAACGTGGCGGGAGCGGCGGAGTCACCTAGTGCAG”: 4290 fluorescence intensity (a.u.). As to “CCTCCTCGTTGGCATCTTGATGACCTGCGATACCCTTGCCCGGAGTCACCTAGTGCAG”, the binding signal was 3440 fluorescence intensity (a.u.). Take “GGTTAGGCCACGTGGGTGATCGTGTCTGCCTCAAGTCTCTCGGAGTCACCTAGTGCAG”: the binding signal was 10900 fluorescence intensity (a.u.).

Regarding “CGGCGACGACGTGGAGCGCGGCAGGAAGTAGCCACGCGCACGGAGTCACCTAGTGCAG”, the binding signal was 5120 fluorescence intensity (a.u.). On to “CGGCACGGTGGGCCAACCCGGCACGACATGAACGTCAGGGCGGAGTCACCTAGTGCAG”, for which the binding signal is 3450 fluorescence intensity (a.u.). For “GTCTACCAACCATGACAATGATCAATTGGGTGTGACTGAGCGGAGTCACCTAGTGCAG”, the binding signal was 5010 fluorescence intensity (a.u.). For “AAATAAGCAAACTACAGTGACTACTCTGCACTGGCAGTTTCGGAGTCACCTAGTGCAG”, the binding signal was 3190 fluorescence intensity (a.u.). With “ACCATATGGCGATATTTATTAATTAGCCTGACAAGACGTACGGAGTCACCTAGTGCAG”, the binding signal was 23500 fluorescence intensity (a.u.). The same measure for “AGCCGTCAAGCCCCGTTGGCTGACCCATCTCATATCTTCACGGAGTCACCTAGTGCAG”: 4110 fluorescence intensity (a.u.).

Regarding “AATTATAACAATATGCACGGCCTCACACACCACAACATCCCGGAGTCACCTAGTGCAG”, the binding signal was 3220 fluorescence intensity (a.u.).

Regarding “ATTCCATCCCAAAACAGTGTGGTGGTGTGGCTTGGATGGGCGGAGTCACCTAGTGCAG”, the binding signal was 3320 fluorescence intensity (a.u.). Regarding “AGCGCTGACCGTGAGTCCGTGAAGCGTCAGTGCCCAATGGCGGAGTCACCTAGTGCAG”, the binding signal is 5040 fluorescence intensity (a.u.).

Consider “CAGATTTAAGCAGGTCATCTCCACTGCACATACTACTCAACGGAGTCACCTAGTGCAG”, for which the binding signal is 3240 fluorescence intensity (a.u.).

In the case of “GAGAGAGAGGGAGGCGGAGACCCGTCACCATCGCACCACACGGAGTCACCTAGTGCAG”, the binding signal was 3980 fluorescence intensity (a.u.). “GGCGTCGACGCGTGGCCTCGACGTGGCAGCGCCGAACCGACGGAGTCACCTAGTGCAG”: the binding signal was 13200 fluorescence intensity (a.u.). Turning to “CTCTCGTTGAGGTCAAGCAGCCAAAGCCGTCATGTGGCATCGGAGTCACCTAGTGCAG”, the binding signal was 3500 fluorescence intensity (a.u.).

As for “CTAGTCTCCTTAAAACTTACTCACATGTCACATGGGTGCACGGAGTCACCTAGTGCAG”, the binding signal was 3480 fluorescence intensity (a.u.). To “TTCAGCCGGGGAAACACATGTGACTACCAGGCTGTAGCGCCGGAGTCACCTAGTGCAG” belongs 3480 fluorescence intensity (a.u.).
